The values below come from US10293016B2, “Use of instant asparagus powder in food, medicine and health food” (Q[…] DEVELOPMENT CO., LTD, priority 2013, dated 2019).

In this assay the test system is Neurotransmitter in Hippocampus of Rat. In words: CSM test, level of neurotransmitter in hippocampus. The conditions noted are these: with the dosage of administration. The assay is classed as in vivo. The text has this: The chronic emotional stress-response model takes as an emotional stress-response resource an uncertain stimulation of drinking by an empty bottle, so as to investigate the influence which the emotional stress of 14 days exerts on the behaviors, and neuroendocrine and immune functions of the rats.
After adaptation for one week, the rats were randomly grouped. Except the normal group, the model groups were fed in individual cages and subjected to the uncertain stimulation of drinking by an empty bottle to establish the anxiety stress models. The specific method is as follows: the training of timely feeding water lasts for 7 days, that is, water was being given to the animals for 10 minutes every day at 9:00-9:10 and 17:00-17:10, and at other times, the water bottles were taken away, without water given. […] The specific method was: the 10 minutes of the empty bottle stimulation was equally divided into 10 periods of time, the above-mentioned three types of behaviors of each rat were recorded in each period of time, wherein it was marked as “1” if the behavior appears, otherwise it was marked as “0”. […]
The following endocrine levels were detected in the test: (1) plasma cortisol concentration, (2) catecholamine level, (3) 5-hydroxytryptamine level.

For `CN1C(=O)CN=C(c2ccccc2)c2cc(Cl)ccc21` [DZP, diazepam], the “change of concentration of the main neurotransmitter in the hippocampus in the brain (in words)” value is listed as “do not have a notable influence”.
